Laboratory results as given in article PMC10023571, “EGOC inhibits TOROID polymerization by structurally activating TORC1” (Nature Structural & Molecular Biology, 2023).
Results are given in words; binding and its absence hold for the method and conditions named. Some results given as binding are weak or reduced against the parent protein; the word gives no strength.

By UniProt entry, the sequences of proteins in these tests, tags left out. Where a name states a change or a piece, a line headed by the entry shows the natural chain unless it says otherwise.
UniProt P32600: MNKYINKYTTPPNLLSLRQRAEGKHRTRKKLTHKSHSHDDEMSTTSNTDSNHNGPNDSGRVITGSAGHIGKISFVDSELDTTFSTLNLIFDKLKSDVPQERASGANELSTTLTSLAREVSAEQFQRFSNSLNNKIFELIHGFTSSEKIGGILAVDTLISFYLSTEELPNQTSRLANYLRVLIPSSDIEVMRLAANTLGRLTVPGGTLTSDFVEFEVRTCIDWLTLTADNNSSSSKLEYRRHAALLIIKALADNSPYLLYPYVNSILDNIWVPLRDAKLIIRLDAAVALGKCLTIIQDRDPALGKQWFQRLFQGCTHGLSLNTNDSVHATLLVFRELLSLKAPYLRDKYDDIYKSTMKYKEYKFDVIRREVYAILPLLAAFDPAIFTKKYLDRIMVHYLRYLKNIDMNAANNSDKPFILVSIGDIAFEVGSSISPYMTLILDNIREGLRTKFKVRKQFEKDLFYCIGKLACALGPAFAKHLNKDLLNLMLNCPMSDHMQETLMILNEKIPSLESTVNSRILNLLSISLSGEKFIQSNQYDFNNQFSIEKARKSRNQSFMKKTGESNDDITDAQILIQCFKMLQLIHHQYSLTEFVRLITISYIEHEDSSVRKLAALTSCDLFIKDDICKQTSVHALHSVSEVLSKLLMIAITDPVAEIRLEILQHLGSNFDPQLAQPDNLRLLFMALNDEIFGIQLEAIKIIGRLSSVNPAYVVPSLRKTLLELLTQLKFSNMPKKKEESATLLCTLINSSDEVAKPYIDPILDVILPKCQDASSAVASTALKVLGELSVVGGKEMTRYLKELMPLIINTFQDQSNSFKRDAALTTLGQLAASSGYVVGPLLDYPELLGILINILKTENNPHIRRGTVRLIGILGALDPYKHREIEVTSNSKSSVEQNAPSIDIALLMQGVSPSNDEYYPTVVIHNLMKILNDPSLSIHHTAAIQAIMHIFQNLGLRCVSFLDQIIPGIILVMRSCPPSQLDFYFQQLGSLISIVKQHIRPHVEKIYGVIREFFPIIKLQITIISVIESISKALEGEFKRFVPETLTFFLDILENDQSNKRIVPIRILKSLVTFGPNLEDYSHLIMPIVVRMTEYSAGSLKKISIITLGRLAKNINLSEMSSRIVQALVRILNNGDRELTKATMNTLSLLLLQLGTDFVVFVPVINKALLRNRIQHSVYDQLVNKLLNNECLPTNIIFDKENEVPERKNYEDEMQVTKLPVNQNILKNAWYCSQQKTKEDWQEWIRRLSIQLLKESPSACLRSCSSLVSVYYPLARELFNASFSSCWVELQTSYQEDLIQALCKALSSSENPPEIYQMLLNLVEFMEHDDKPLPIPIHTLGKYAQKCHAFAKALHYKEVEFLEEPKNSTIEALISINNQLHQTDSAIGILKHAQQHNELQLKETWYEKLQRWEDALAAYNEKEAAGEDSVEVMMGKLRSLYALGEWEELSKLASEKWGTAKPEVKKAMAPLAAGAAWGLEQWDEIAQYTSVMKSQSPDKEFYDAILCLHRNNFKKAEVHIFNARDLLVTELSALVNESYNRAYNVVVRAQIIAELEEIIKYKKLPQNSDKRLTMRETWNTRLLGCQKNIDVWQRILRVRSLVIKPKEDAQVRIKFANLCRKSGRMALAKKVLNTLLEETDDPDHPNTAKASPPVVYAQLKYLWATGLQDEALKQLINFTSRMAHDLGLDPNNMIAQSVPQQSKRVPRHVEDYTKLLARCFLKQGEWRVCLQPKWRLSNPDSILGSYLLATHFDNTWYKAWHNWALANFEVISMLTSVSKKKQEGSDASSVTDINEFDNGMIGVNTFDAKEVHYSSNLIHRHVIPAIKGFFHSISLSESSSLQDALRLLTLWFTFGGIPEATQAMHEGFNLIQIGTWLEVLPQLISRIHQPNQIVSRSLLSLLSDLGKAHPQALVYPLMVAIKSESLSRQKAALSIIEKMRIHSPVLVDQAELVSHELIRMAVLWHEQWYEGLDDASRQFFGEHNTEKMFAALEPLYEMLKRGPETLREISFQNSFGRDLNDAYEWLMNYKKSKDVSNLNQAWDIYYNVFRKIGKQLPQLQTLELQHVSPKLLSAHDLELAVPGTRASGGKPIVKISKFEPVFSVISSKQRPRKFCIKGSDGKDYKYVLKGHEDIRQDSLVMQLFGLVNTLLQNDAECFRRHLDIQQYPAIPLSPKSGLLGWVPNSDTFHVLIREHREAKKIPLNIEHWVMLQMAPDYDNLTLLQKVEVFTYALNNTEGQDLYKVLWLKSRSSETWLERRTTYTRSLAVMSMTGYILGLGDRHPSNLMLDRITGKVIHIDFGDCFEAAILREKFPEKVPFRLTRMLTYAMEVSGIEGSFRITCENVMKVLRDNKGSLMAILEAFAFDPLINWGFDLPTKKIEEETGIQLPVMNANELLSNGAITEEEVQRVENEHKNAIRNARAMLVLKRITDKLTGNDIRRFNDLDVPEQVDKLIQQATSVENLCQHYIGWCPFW

Molecular target: TORC1 in the TOROID (Tor2 only), purified from KOG1-TAP ∆tor1 cells (S. cerevisiae (endogenous in S. cerevisiae cells) | S. cerevisiae) (UniProt P32600)
Test: cryo-EM structure; TOROID filaments purified from KOG1-TAP ∆tor1 cells grown PDS (subunits co-purified from yeast); helical reconstruction, then signal subtraction and single particle analysis, 3.87 Å; both purified

For “TORC1 in the TOROID (Tor2 only), purified from KOG1-TAP ∆tor1 cells (from UniProt P32600 1-2474; P38873 1-1557; P41318 1-303; Q08921 1-799) (complex)”, the binding was “binds”.
